In US20220127341A1 (HUDSON INSTITUTE OF MEDICAL RESEARCH, published 2022):
These are yes or no findings as the source states them, for the method shown. Some entries that bind do so weakly or less than the wild type.

Protein sequences, listed by entry. Tags and fused reporters are not part of them.
UniProt P02533: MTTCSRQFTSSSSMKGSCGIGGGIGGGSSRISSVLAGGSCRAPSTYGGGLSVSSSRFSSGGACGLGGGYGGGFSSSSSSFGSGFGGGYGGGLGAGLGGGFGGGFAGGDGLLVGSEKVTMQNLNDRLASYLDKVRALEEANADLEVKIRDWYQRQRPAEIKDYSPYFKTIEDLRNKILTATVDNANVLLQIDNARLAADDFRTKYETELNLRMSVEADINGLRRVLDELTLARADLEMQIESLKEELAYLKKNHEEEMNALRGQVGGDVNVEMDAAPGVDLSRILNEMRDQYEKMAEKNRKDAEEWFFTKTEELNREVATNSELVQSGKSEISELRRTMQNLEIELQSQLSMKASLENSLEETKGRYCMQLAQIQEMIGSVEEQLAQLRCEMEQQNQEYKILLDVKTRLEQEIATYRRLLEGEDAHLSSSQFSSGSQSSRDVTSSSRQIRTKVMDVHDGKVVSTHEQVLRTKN

Legend:
[1] = target: full-length recombinant KRT14 protein (UniProt P02533); assay: western blot
[2] = target: full-length recombinant KRT14 protein (UniProt P02533); assay: western blot of 1 µg recombinant KRT14; mAb at 1:1000, 1:5000 and 1:10,000

- binding [1]: binds
- binding [2]: binds
B1: monoclonal anti-KRT14 antibody AN-17 (antibody, V domains shown)
VH: QVQLKESGPGLVAPSQSLSITCTVSGFSLSRYSVHWVRQPPGKGLEWLGMIWGGGSTDYNSALKSRLSISKDNSKSQVFLKMNSLQTDDTAMYYCARKDYGYSYFDYWGQGTTLTVSS
VL: DVLMTQTPLSLPVSLGDQASISCRSSQSIVHSNGNTYLEWYLQKPGQSPKLLIYKVSNRFSGVPDRFSGSGSGTDFTLKISRVEAEDLGVYYCFQGSHVPFTFGSGTKLEIKR
notes: the isotype-matched control used is mouse IgG1 kappa; Some assays used it conjugated to Alexa Fluor 488 or Alexa-647; also called mAb AN-17; mAb AN17
